This is one part of the list.
B1: il2ra_site1_2b5i_sap_4_mot_HHH_b1_05003_000000208_0001_23_39_H_._HHH_b2_05191_0001_0000600030_0000001_0_0001 (protein)
chain: SSSDELNRVAAEIVDELAEKLGLDWEQFRELTRYAVRLIWRGVSEEEIEEEVRRLAEELRGSSSS
B2: il2ra_site1_3nfp_sap_23_mot_HHH_b1_06312_000000077_0001_1_18_H_._HHH_b1_02183_af2_0001_0000300006_0000001_0_0001 (protein)
chain: NLKRMLEQFRKAGDPLIEEIAEVLEEARRRGDREVLEEIYRLIMKFIRGELPPEEVLELVERLLK
B3: il2ra_site1_1z92_sap_11_mot_HHH_b1_01467_000000208_0001_22_39_H_._HHH_b2_05789_af2_0001_0000100013_0000001_0_0001_af2pred_dldesign_0_af2pred (protein)
chain: NIFEEIRRELEADPSFYEELARLLLRDAGGDAARAKAMADIYGRRGGIPEEVVARIKAIIDELVE
B4: il2ra_site2_2erj_sap_19_mot_HHH_b1_04810_000000187_0001_1_15_H_._82a85cb19d3401380e8a5036dcc53c2d_0001_0001_0000200003_0000001_0_0001 (protein)
chain: SSSSDWLHELYELAVRLTRLVAEGDEEEFEKVLEEVKRLAEEADSPNAREIVESLERLFRSSSSS
B5: il2ra_site2_2erj_normal_mot_HHH_b2_06411_000000092_0001_40_56_H_._HHH_b2_04892_af2_0001_0000100010_0000001_0 (protein)
chain: SSSSTEELREAYELAVKALHLISEGDPRAEEVIKELKELAEELDNPALEQIVELLEEKLGSSSSS
B6: il2ra_site2_3nfp_normal_mot_06aac5ad12d75b9fbd31e1a3f90cf818_0001_1_af2_000000264_0001_35_48_H_._HHH_b2_03912_0001_0000100004_0000001_0_af2pred_0001_af2pred (protein)
chain: SSSSEETEEFARQVVEELVEEYKLSEKDKEVLEKSAELALEAGADESYIKTWLEASAKLLSSSSS
B7: il2ra_site1_2b5i_sap_2_mot_HHH_b1_05947_000000126_0001_42_56_H_._HHH_b2_03172_0001_0000700047_0000001_0_0001_af2pred_dldesign_0_af2pred (protein)
chain: SSSSDEEYDKVEDLFKEALRLFREGKKEEAQKLLDEAEALAEKLGDAKLVAELRRLREWLKSSSS
B8: il2ra_site1_1z92_sap_18_mot_HHH_b2_04293_000000220_0001_23_38_H_._HHH_b2_07985_0001_0000300030_0000001_0_0001_af2pred_0001_af2pred (protein)
chain: SSSSSKLEKDLRIAVKVAVRAAGLSEEEQEELERLAEELARRGIDREEALRILDKRALELHSSSS
B9: il2ra_site2_2erj_normal_mot_HHH_b2_04744_000000290_0001_42_58_H_._HHH_b1_07932_0001_0000100006_0000001_0 (protein)
chain: SSSSDEEEIEELLEELQEALERGDHELFNEIATRVFELIKKLGDEELALILWRLMREHFELSSSS
B10: il2ra_site2_2erj_normal_mot_HHH_b1_03107_000000098_0001_39_52_H_._HHH_b2_04977_0001_0000300025_0000001_0 (protein)
chain: SSSSSEERRKIFEEIAELSARLIEEGDPELLKRLEELLEIAEELGNEIAVRYAEFARRDHSSSSS
B11: il2ra_site2_2erj_sap_5_mot_7e65b9b3744af75e5722afc9efacd91e_0001_000000122_0001_16_31_H_._HHH_b1_00287_0002_0000700051_0000001_0_0001 (protein)
chain: SSSSSEEEVEELIQEAERLLEEGDPEKAEEVLSRAFELAYEVNDPELASRVIELMASIVRSSSSS
B12: il2ra_site1_3nfp_sap_17_mot_HHH_b2_06429_af2_000000115_0001_1_18_H_._HHH_b2_03571_af2_0001_0000700010_0000001_0_0001 (protein)
chain: GIAALLALRAIEDGSERTVKRLREQIERMARLLKDPKMEELLELIERALQGDPEAKEELEKLIED
B13: il2ra_site2_2erj_normal_mot_af86707857d369f3e1d85dcabc5f9321_0001_000000201_0001_14_29_H_._HHH_b1_04724_af2_0001_0000400016_0000001_0 (protein)
chain: SSSSDLEERVEELLEKAEELLERGNPEEALEVVREAFEIAYKLGDHRLAALAIELAHKIVRSSSS
B14: il2ra_site1_1z92_sap_16_mot_HHH_b1_06078_000000124_0001_1_18_H_._b330152711b06c111f3f0455498469a7_0001_1_af2_0001_0000400016_0000001_0_0001_af2pred_0001_af2pred … (protein)
chain: SSSSDLEEIAEELVEELVEEFGADEEEEEALRKAAQLAARNGFSPKSIHLALRRLIERELSSSSS
B15: il2ra_site2_3nfp_sap_15_mot_HHH_b2_06897_000000042_0001_40_57_H_._1a8b5531b1c5c0995b8d0dfb01d8624e_0001_0001_0000200014_0000001_0_0001 (protein)
chain: SSSSDVERYIKAALALAKRAAERNDPQAERLLELIRAAIEDAGDEEAKELLEEIERLLRELSSSS
B16: il2ra_site1_2b5i_sap_20_mot_HHH_b2_01776_af2_000000178_0001_1_14_H_._HHH_b2_00329_0001_0000100002_0000001_0_0001 (protein)
chain: SSSSDEANRELVRFIWELFFRFGLSAEQARELDQLAAELLDRGVSVEEIKELLRELAEELSSSSS
B17: il2ra_site2_2erj_normal_mot_HHH_b1_03609_af2_000000077_0001_42_55_H_._HHH_b1_05140_0001_0000100007_0000001_0 (protein)
chain: SSSSSDEEEVQRLLEEAKELLEEGNPEEALEILREASVRAFRANNFELWSLLAELSREVASSSSS
B18: il2ra_site2_3nfp_sap_15_mot_HHH_b1_02084_000000020_0001_36_55_H_._dc0e4c8b9eb78cb05ea10a80a584d50d_0001_0001_0000700043_0000001_0_0001 (protein)
chain: SSSSEEERVEELIQEAEKLLEEGDPSEAAQLVLEASEIAARLNDPELARKVLELFEAIQNNSSSS
B19: il2ra_site1_2b5i_normal_mot_f5ff40796168375b462bec8614a1db4a_0001_1_000000138_0001_53_65_H_._HHH_b1_05434_af2_0001_0000100002_0000001_0_af2pred_dldesign_0_af2pr … (protein)
chain: SSSSSSGSRELIRELIEKAKELPDKREAYRVLRMALRLARKAGDEELLAEVEALLAELSSSSSSS
B20: il2ra_site2_3nfp_sap_22_mot_HHH_b1_00940_af2_000000266_0001_1_16_H_._HHH_b1_06086_0001_0000600043_0000001_0_0001 (protein)
chain: SDAEHVELALRLIKAHALIAGDEEVERIVKELEELLEEAKEKNDEELLREVAERANELAERVANS
B21: il2ra_site1_2b5i_sap_10_mot_HHH_b1_06258_af2_000000112_0001_42_56_H_._HHH_b1_01191_0001_0000300026_0000001_0_0001_af2pred_dldesign_0_af2pred (protein)
chain: SSSSSSAKEVLDLFEEANRLYQAGKEEEAKELLEKALELAKKAGNPSLVRFVQACLEALESSSSS
B22: il2ra_site2_2erj_normal_mot_HHH_b2_05804_000000098_0001_44_58_H_._HHH_b1_00545_0001_0000300010_0000001_1 (protein)
chain: SSSSSDEEKEVWERVAELLVRALEVDEEEVRKLLEEARELAEEANDPFLERYIEFVRRSHSSSSS
B23: il2ra_site1_1z92_sap_13_mot_HHH_b1_07881_000000176_0001_43_56_H_._HHH_b2_04254_0001_0000100009_0000001_0_0001_af2pred_0001_af2pred_1 (protein)
chain: SSSSSSEEERIQEASEIFTEAQKIKDKEEVRKLLEEALELAEKARDENDRKDIERYLRALSSSSS
B24: il2ra_site1_1z92_sap_17_mot_HHH_b1_00661_af2_000000033_0001_38_50_H_._HHH_b2_00969_af2_0001_0000300012_0000001_0_0001_af2pred_0001_af2pred (protein)
chain: DEEYEELIEELRRRGLSPEEIVEILLEFIRKEARLPPRLALQLLRQVLRRLGDPELVQIVRELLE

Molecular target: il2ra, P01589
Assay: yeast display titration

Apparent Kd, inactive:
B1 no binding seen, B2 no binding seen, B3 no binding seen, B4 no binding seen, B5 no binding seen, B6 no binding seen, B7 no binding seen, B8 no binding seen, B9 no binding seen, B10 no binding seen, B11 no binding seen, B12 no binding seen, B13 no binding seen, B14 no binding seen, B15 > 1220 nM, B16 no binding seen, B17 no binding seen, B18 no binding seen, B19 no binding seen, B20 no binding seen, B21 no binding seen, B22 no binding seen, B23 no binding seen, B24 no binding seen

Reference: PMC10163288
